Among the data in article PMC10175245 are binding values, retold here.

By UniProt entry, the sequences of proteins in these tests, tags left out.
UniProt Q64373: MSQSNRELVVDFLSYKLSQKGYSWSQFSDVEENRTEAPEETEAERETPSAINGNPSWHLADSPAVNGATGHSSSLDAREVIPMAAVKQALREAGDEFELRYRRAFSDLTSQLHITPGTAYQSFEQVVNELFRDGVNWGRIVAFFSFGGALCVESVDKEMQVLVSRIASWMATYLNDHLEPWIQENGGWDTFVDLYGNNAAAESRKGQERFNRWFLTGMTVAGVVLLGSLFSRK
UniProt O88597: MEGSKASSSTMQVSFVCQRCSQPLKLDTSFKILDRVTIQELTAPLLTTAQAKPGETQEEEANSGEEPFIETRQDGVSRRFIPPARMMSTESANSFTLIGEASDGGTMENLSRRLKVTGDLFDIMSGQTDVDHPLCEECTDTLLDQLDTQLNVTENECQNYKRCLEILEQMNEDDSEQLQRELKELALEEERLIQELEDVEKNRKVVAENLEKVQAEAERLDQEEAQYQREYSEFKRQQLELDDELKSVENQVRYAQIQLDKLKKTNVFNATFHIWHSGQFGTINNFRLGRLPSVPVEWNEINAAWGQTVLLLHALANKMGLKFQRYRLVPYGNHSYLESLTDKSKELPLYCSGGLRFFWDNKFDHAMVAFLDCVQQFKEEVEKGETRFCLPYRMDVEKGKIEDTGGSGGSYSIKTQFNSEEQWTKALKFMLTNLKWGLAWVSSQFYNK

No constants are given. Whether binding was seen depends on the method and setting. In cells and extracts the contact can be indirect. Some entries that bind do so weakly or less than the wild type.

What all share (experiment): co-IP; Pierce crosslink magnetic IP/Co-IP kit; beige adipocyte lysate in IP lysis buffer incubated with Protein A magnetic beads conjugated with p16INK4a, p19ARF, BCL2L1 or IgG antibody at 4 °C overnight; eluted by heating in loading buffer, blotted; Fig. 7h in control and Cdkn2a^Ucp1 KO beige adipocytes after withdrawing external stimuli
In experiment [1] the target is BCL2 like 1 (BCL2L1) (mouse (endogenous in mouse beige adipocytes)) (UniProt Q64373).
The target of experiment [2] is T1, p16^INK4a (mouse (endogenous in mouse beige adipocytes)) (UniProt P51480).
T1 sequence: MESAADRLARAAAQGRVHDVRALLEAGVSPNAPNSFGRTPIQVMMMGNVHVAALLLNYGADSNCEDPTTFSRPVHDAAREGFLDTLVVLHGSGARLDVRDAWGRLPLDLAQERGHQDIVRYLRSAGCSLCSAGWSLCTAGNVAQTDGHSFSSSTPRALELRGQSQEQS

Experiment [3] addresses T2, p19^ARF (mouse (endogenous in mouse beige adipocytes)) (UniProt Q64364).
T2 sequence: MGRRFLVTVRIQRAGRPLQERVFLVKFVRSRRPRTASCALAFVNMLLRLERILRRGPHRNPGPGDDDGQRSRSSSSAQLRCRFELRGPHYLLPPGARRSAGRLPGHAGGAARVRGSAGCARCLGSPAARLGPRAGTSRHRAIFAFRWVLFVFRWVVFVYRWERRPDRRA

Consider “beclin 1 (BECN1) (from UniProt O88597 1-448)”, for which the figures for the binding result in experiment [1], in experiment [2] and in experiment [3] were “binds”, “no binding” and “binds”, respectively.

For the molecule “BCL2 like 1 (BCL2L1) (from UniProt Q64373 1-233)”, the figures for the binding result in experiment [2] and in experiment [3] were “no binding” and “binds”, respectively.

B1: p19^ARF (protein, UniProt Q64364 1-169)
chain: MGRRFLVTVRIQRAGRPLQERVFLVKFVRSRRPRTASCALAFVNMLLRLERILRRGPHRNPGPGDDDGQRSRSSSSAQLRCRFELRGPHYLLPPGARRSAGRLPGHAGGAARVRGSAGCARCLGSPAARLGPRAGTSRHRAIFAFRWVLFVFRWVVFVYRWERRPDRRA
B1: the binding result in experiment [1] is “binds”.
